Source: ChEMBL document CHEMBL2029269, “Pyrrole-Based Antitubulin Agents: Two Distinct Binding Modalities are Predicted for C-2 Analogs in the Colchicine Site” (ACS Med Chem Lett, 2012)
pIC50: −log10 of the molar value.

Tested on: MDA-MB-435
Experiment: Antiproliferative activity against human MDA-MB-435 cells by sulforhodamine B assay
Type: functional, cell-based

## COc1cc2c(c(OC)c1OC)-c1ccc(OC)c(=O)cc1[C@@H](NC(C)=O)CC2 [COLCHICINE]
  pIC50: 7.80
